No constants are given. Whether binding was seen depends on the method and setting. Some results given as binding are weak or reduced against the parent protein; the word gives no strength.
Tests used:
[1] = molecular target: Siglec-9 protein (construct not stated; antigen of Examples 3 and 4) (human) (UniProt Q9Y336); assay: ELISA, Siglec-9 coated at 1 µg/ml, antibody titrated 0-420 nM
[2] = molecular target: Siglec-9 protein (construct not stated; antigen of Examples 3 and 4) (human) (UniProt Q9Y336); assay: SPR (Carterra LSA), antibody coupled to HC2000M chip, antigen in solution

The chains behind the UniProt entries cited, without tags or fusion partners. Where a name states a change or a piece, a line headed by the entry shows the natural chain unless it says otherwise.
UniProt Q9Y336: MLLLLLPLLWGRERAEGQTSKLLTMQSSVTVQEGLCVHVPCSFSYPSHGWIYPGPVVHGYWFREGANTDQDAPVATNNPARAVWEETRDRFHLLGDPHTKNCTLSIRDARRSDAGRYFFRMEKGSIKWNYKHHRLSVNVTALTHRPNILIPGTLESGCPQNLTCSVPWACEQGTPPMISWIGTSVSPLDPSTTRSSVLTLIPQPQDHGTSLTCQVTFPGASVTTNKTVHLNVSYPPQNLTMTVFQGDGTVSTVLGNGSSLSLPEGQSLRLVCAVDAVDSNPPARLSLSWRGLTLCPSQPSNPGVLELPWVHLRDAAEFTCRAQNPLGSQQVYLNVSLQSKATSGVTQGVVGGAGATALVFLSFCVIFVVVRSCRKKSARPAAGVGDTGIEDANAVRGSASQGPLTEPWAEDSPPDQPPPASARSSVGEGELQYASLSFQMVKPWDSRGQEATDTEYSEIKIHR

| binding [1] | binding [2] | Binder |
| --- | --- | --- |
| binds | binds | monoclonal antibody 224B1 (rabbit) (antibody, V domains shown) VH: QSVEESGGRLVTPETPLTLTCTASGFSLSSYYMSWVRQAPGKGLEWIGYIWTDGSAHYATWTKGRFTISKTSSTTVDLKITSPTTEDTATYFCVRANSGSHTYIEKFNLWGPGTLVTVSS VL: DVVMTQTPASVEATVGGSVTIKCQASPSINDELSWYQQKPGQRPTLLIYEASALESGVPSRFKGSGSGTEFTLTIGDLECADAATYYCQCTYGSRSDISYGNTFGGGTEVVVKG |
| binds |  | comparative monoclonal antibody 5C6 (WO 2017/075432), mouse-rabbit chimera (antibody, V domains shown) VH: EVQLQQSGPELVKPGASVRISCKASGYTFTDYNIHWVKQSQGKSLEWIGYIYPYNGDTGYNQKFQNKATLTVDNSSSTAYMELRSLTSEDSAVYYCANGNYLYYYAMDYWGQGTSVTVSS VL: DVVMTQTPLSLPVSLGDQVSISCSSSQSLVHSNGNTYLHWYLQKSGQSPKLLIYKVSNRFSGVPDRFRGSGSGTDFTLKISRVEAEDLGVYFCSQNTHVPLTFGAGTKLELKG |
| binds | binds | monoclonal antibody 68D4 (rabbit) (antibody, V domains shown) VH: QSLEESGGRLVKPDETLTITCTVSGIDLSSYDMTWVRQAPGKGLEWIGIIYTGGLTYYASWAKGRFTISKTSTTVDLKITSPTTEDTATYFCAREVGDNNNFWGPGTLVTVSS VL: DVVMTQTPASVSEPVGGTVTIKCQASESVDSGLAWYHQKPGQPPKLLIYDDTDLASGVPSRFKGSRSGTAHTLTISDLECADAATYYCQYTDYGRTYVGTFGGGTEVVIKG |
| binds |  | comparative monoclonal antibody mAbA (WO 2017/153433), mouse-human chimera (antibody, human IgG1, kappa, V domains shown) VH: QVQLQQPGAELVKPGSPVKLSCKASYFTFTSYWMHWVRQRPGQGLEWIGEINPSNGHTNYNEKFESKATLTVDRSSSTAYMQLSSLTSEDSAVFYCANGVESYDFDDALDYWGQGTSVTVSS VL: DIQMTQTTSSLSASLGDRVTISCRASQDINNYLNWYQQKPDGTIKLLIYYTSRLHSGVPSRFSGSGSGTDYSLTINNLEQEDIATYFCQQGNTLPFTFGGGTKLEIKR |

Reference: US20230009582A1
